Among the data in publication PMC9134915 are binding values, retold here.

The chains behind the UniProt entries cited, without tags or fusion partners.
UniProt P04899: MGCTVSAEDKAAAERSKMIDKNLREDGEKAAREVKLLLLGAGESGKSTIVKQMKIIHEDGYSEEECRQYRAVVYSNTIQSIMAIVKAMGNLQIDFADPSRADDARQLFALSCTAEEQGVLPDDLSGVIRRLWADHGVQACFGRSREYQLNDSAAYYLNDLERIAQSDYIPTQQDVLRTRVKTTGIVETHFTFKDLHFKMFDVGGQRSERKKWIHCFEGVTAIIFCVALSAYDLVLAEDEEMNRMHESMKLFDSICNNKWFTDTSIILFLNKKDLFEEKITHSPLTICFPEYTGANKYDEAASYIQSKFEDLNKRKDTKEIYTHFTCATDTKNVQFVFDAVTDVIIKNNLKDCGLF
UniProt P08754: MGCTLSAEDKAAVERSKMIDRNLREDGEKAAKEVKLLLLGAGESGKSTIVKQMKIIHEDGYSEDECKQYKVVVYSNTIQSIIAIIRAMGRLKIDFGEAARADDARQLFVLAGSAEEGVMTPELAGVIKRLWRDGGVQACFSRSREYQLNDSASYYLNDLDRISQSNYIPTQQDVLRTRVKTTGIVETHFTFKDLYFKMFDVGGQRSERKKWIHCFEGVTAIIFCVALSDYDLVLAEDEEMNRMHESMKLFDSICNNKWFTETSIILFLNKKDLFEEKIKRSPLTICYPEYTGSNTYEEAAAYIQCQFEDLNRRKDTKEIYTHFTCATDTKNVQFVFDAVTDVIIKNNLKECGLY

The target in this experiment is T1, angiotensin II type 2 receptor (AGTR2), overexpressed from pCMV6-AGTR2 (human) (UniProt P50052).
T1 sequence: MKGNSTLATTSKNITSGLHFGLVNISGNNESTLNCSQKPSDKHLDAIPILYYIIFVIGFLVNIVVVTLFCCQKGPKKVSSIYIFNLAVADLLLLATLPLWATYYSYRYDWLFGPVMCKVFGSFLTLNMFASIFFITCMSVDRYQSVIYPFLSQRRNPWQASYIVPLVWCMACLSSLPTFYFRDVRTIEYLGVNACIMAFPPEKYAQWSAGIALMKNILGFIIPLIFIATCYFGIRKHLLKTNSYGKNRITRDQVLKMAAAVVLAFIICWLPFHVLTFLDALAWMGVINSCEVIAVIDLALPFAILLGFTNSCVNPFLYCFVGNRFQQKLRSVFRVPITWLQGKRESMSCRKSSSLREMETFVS
The experiment in a line: co-IP; HEK293 cells transfected with AGTR2, Gαi-2/Gαi-3 and hsa-let-7a-2 or control plasmids for 24 h; extract precipitated with anti-AGTR2 antibody (or IgG) and protein A/G agarose at 4 °C; Gαi-2/Gαi-3 detected by western blot. In general terms: Immunoblotting shows a protein as a band on a membrane.

No constants are given. Whether binding was seen depends on the method and setting. In cells and extracts the contact can be indirect. Some entries that bind do so weakly or less than the wild type.

With Gαi-2 (from UniProt P04899 1-355), the binding entry is “binds”.

On to Gαi-3 (from UniProt P08754 1-354), for which the binding entry is reported as “binds”.
